Test results from the supplement of paper PMC5949888.
± gives the standard deviation of the averaged measurements. Most values lie at the floor of the assay. Slopes are relative: functional sequences can read slightly below zero.

The substances below were run on Saccharomyces cerevisiae PS128 hsf1 delta, HSF1(1-493) fusion (assay: growth estimate (transactivation domain function in HSF1 fusion, heat-shock survival) (a.u. (slope of normalised read count over time)); higher = stronger growth at 37°C, i.e. more transactivation activity). Conditions: library: random library.

Row | Substance | growth estimate
1 | VTPAHTLSGSGGVCNCVLSG | < -0.25
2 | LRYPFRVENRTELREVCTFK | < -0.25
3 | SGY | < -0.25
4 | LGSYERTGVLLKTRVVHKRV | < -0.25
5 | VTGGPTRQGRSTLMTGWGLS | < -0.25
6 | RHRRGGSATYVALVYLGGTA | < -0.25
7 | FRGGVRNSTFRDGGKLLPCT | < -0.25
8 | SPLPAP | < -0.25
9 | IKCYTPGVGCTSSRGGCNTE | < -0.25
10 | DLVVASPT | < -0.25
11 | ICLRFINRCSLEK | < -0.25
12 | GYPLLCYFSAVSIQERKQAE | < -0.25
13 | TALIIESPSSLDDVLGSSGS | < -0.25
14 | LLSVSLRIFTAG | < -0.25
15 | EICCPTILDIRASFRCTRPL | < -0.25
16 | RQGTRMWRRTRGVV | < -0.25
17 | YLPSIELSIDFVRRVPFPLS | -0.25
18 | MARGTPPTHRFR | < -0.25
19 | FGKAFMRRSYGRG | < -0.25
20 | LVPICVCNNRS | < -0.25
21 | SLPFHSRDPFKDTDWGRASI | < -0.25
22 | LDLDPQP | < -0.25
23 | MEN | < -0.25

Exported tab-delimited: part of the list above
Row	Substance	growth estimate
15	EICCPTILDIRASFRCTRPL	< -0.25
16	RQGTRMWRRTRGVV	< -0.25
17	YLPSIELSIDFVRRVPFPLS	-0.25
18	MARGTPPTHRFR	< -0.25
19	FGKAFMRRSYGRG	< -0.25
20	LVPICVCNNRS	< -0.25
21	SLPFHSRDPFKDTDWGRASI	< -0.25

Two entries from above, set out differently.
Row	Substance	growth estimate
14	LLSVSLRIFTAG	< -0.25
15	EICCPTILDIRASFRCTRPL	< -0.25

Remaining list, next part.

Row | Substance | growth estimate
24 | TRACFS | < -0.25
25 | LGCLDLARARQVVTPRVVYL | < -0.25
26 | PQVWTNGGLRSTRDSVRH | < -0.25
27 | RYAYGVQPTGPRLPRDARSH | -0.245
28 | RGPPCVGYLVKAS | < -0.25
29 | IISEWVLAVLATLKGV | < -0.25
30 | TSWKAHGVLQDGTSVDLSCR | < -0.25
31 | PEKGPDP | < -0.25
32 | VRRARDTLCWSQALRLRHSR | < -0.25
33 | TESGGFTSPTNAFKVLGRPR | < -0.25
34 | TCHAVRFGLVTRSCTFHVMV | -0.228
35 | KKRIETGTTVVFWQLIVGPW | -0.229
36 | AQAVLRNRSVFSAGVY | < -0.25
37 | PVPSIH | < -0.25
38 | WEGACKSRMADVLSRPPCP | < -0.25
39 | VVSCNRGIQCGSLNDANTRA | < -0.25
40 | TAAVRN | < -0.25
41 | WRNNCGAVALNRSYEHNYEV | < -0.25
42 | LPAYCSTVFHSWVGRR | < -0.25
43 | RVGRRVQ | < -0.25
44 | NQAP | < -0.25
45 | LDPESWYGAAKDHVNRIL | < -0.25
46 | STRYLLYCV | < -0.25

Row | Substance | growth estimate
47 | PTVYGRPKGYALHKCNKLLS | < -0.25
48 | LGRVDMGGSRNLFS | < -0.25
49 | KRRSFQIGPLSRKVFGVGPQ | < -0.25
50 | GVSRC | < -0.25
51 | YRYVLVKDQVKAGLLAIASG | -0.176
52 | SWVNGPCTGA | < -0.25
53 | ATLVSEPLGISIPVENDT | < -0.25
54 | LSERSST | < -0.25
55 | DLFVAHPLYPGLD | -0.162
56 | TQCPPGSGDHIDHSPTLVRA | < -0.25
57 | WRWKIQIAWGIDSMQSVCRS | < -0.25
58 | CPNIKLV | < -0.25
59 | KCGSRDTRQHLAALAT | < -0.25
60 | VHHSFIESRYLHFRPRENGI | < -0.25
61 | HSP | < -0.25
62 | RLPHNHCT | < -0.25
63 | SLLKWLVVGF | < -0.25
64 | GGRKRPCPTATRTTQRIRL | < -0.25
65 | RGIKRAASRVSVRWDV | < -0.25
66 | QPPASRSMKLGYAGRQTIPK | < -0.25
67 | RGLQCFFQLIAQPGWVLKPR | < -0.25
68 | SVASLLLEGVLPVSPLARPH | < -0.25
69 | VQPHMLVTGRGMLGWVHADG | < -0.25

Row | Substance | growth estimate
70 | VYGSAT | < -0.25
71 | TIFGQRDSSVVTELRRVVQP | -0.245
72 | IKKTLKSLYNESNPLLMEGR | < -0.25
73 | YRLYNFLSKLWPQLAYTWSN | -0.232
74 | SWYGTVLDQATVRWFRRHVK | < -0.25
75 | TYGVDR | -0.247
76 | CSGLWGNSMAIFRRSVCLSG | < -0.25
77 | NTCEAGDTQLKPLPAQARGV | < -0.25
78 | EATLADLSSTKVTR | < -0.25
79 | SSKTASGSWTHGAQN | < -0.25
80 | DNRLFTGAVAGAGGNASFT | < -0.25
81 | LRLGLFVTGREFRWYWTSPD | < -0.25
82 | ICRIILKS | < -0.25
83 | YFDLRGALIHARFRFRGVFA | < -0.25
84 | QCWDFSASPR | < -0.25
85 | YGRQPRLFHLEHFQSKCSLQ | -0.248
86 | GQKTQTIVWRGQVVVAHDEL | < -0.25
87 | ISGPVVSKVKHCPVAVKGPS | < -0.25
88 | RHHTGPAFRFREPYHLPFVP | < -0.25
89 | THSAW | < -0.25
90 | ASLYR | < -0.25
91 | AYYRLFV | < -0.25
92 | VLNKSRLCV | < -0.25

Row | Substance | growth estimate
93 | SRLYPGFRREGPRPSRERTY | < -0.25
94 | SGYKAH | < -0.25
95 | TTRASERARPELA | < -0.25
96 | QPNSRL | < -0.25
97 | YSACIGGQSCVSLTEIMPVG | < -0.25
98 | VRYL | < -0.25
99 | QGGDGRFKFIFSGLLKVVVE | < -0.25
100 | PLTRPEGLIQQALV | < -0.25
101 | WILLIRVEVFACALGTQAPQ | < -0.25
102 | VRGGR | < -0.25
103 | SYFRIS | < -0.25
104 | QCRGVTQTGLPIVEFRAIRH | < -0.25
105 | VGCRTCPRSP | < -0.25
106 | PPVTGRGVVHRPA | < -0.25
107 | LSE | < -0.25
108 | IAGFFPQGP | < -0.25
109 | TVGYSGWSEPSRYFPTE | < -0.25
110 | CFEFIRSSAECPRIRSLYPA | < -0.25
111 | TLHMFVITRAKRARSASKPM | < -0.25
112 | RGKSPQET | < -0.25
113 | ASLVAGRRAQCV | < -0.25
114 | TYGCIWPNQMFHSAQPGILR | < -0.25
115 | SCGNANEKRLTRGRNGPGPH | < -0.25

Quoted at random: two records from the list
Row | Substance | growth estimate
104 | QCRGVTQTGLPIVEFRAIRH | < -0.25
99 | QGGDGRFKFIFSGLLKVVVE | < -0.25

Remaining list, next part

Row | Substance | growth estimate
116 | VKRGAHWSSGRLKCGL | < -0.25
117 | GPEHDYCISPDI | < -0.25
118 | HDLACCLKPGLVVRIHAVYT | < -0.25
119 | LDPWRAVTLYFTRWLSKATS | < -0.25
120 | RGWVPSIGANWPYIDITVWS | < -0.25
121 | SIRGGHFSPACMEHGMPTNA | < -0.25
122 | GSLQYRSRAEKDSGQGVSQR | < -0.25
123 | YTICIPSPPLVLNISAVTME | < -0.25
124 | SRYVKIRGMKDHIDDNGFLH | < -0.25
125 | LALSN | < -0.25
126 | CLYGIPPGPIGTL | < -0.25
127 | REYRAAESESGSFKASPSPR | < -0.25
128 | MVPANIAFDPITIVHRHRHR | -0.245
129 | YQATRGRWPSVL | < -0.25
130 | RNMYRITKLKFRTVGYNGNV | < -0.25
131 | LRSEGFGLRVHGVIEY | < -0.25
132 | SEFLQNKGSILLARVGEKSP | < -0.25
133 | SVTRSCLSSQFYES | < -0.25
134 | VRRSRVTLHLLNAPCNVPVR | < -0.25
135 | ADVSFP | < -0.25
136 | IPRLNATNIPHTPAGHSMWP | < -0.25
137 | RLRAKRAECLLLLRGTY | < -0.25
138 | GSRMPARFGRDKSSRTPD | < -0.25

Row | Substance | growth estimate
139 | LRLTSMDARHLCETDVGQ | < -0.25
140 | RPLVYGFGVNWRSRLSHACV | < -0.25
141 | TRCFYSLCINTSTANLSYFT | < -0.25
142 | PHIG | < -0.25
143 | HLNLGSVRALIQLASTLLAV | < -0.25
144 | LEG | < -0.25
145 | VDETRYALTQRDTIGKNGHS | < -0.25
146 | FRNRGALSAGQRCRLE | < -0.25
147 | PQMLASELRTISFIPHV | < -0.25
148 | MNQRGDLSSMWSDGEEVRAA | < -0.25
149 | QKQAQDPRPG | < -0.25
150 | HRRVLLGQPHLGLKWTPGRL | < -0.25
151 | RWRRIPKPIPRVEARFSSGY | < -0.25
152 | RFYGGCTSLLYPIRV | < -0.25
153 | WAYRWALGEESVTSSYNSSR | < -0.25
154 | SQRRNVA | < -0.25
155 | LAR | -0.237 ± 0.018
156 | GIPDSWDRCTR | < -0.25
157 | SIRVGVAPHFI | < -0.25
